# Laboratory results as given in patent US20030083261A1, “Class of 12mer peptides that inhibit the function of the mitotic check point protein Mad2” (priority 2001, published 2003).
# By UniProt entry, the sequences of proteins in these tests, tags left out.
# UniProt Q13257, whole entry: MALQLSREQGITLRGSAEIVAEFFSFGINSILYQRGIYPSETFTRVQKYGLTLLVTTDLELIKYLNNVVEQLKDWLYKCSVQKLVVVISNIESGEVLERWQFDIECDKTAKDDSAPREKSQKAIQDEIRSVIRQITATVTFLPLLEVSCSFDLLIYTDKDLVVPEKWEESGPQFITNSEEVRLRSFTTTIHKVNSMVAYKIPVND
# Part of at least one peptide drawing is inferred or uncertain, most often the ends. No end group written: not given here.
# Molecular target: Mad2 (Homo sapiens, UniProt Q13257)
# Assay: Aggregation of Mad2-peptide complex over time (HSQC after incubation at 30° C.)
# Set-up: made in house
# Conditions: incubation at 30° C. / extended periods of time
# Protocol: To confirm if the complex aggregated over time, an HSQC spectrum was acquired on a freshly prepared ^15N-Mad2-Cdc20P1 sample. This sample was then incubated at 30° C. (the temperature for NMR data acquisition) for 48 hours and another HSQC was acquired.
sequence,measurement,value
"DVEEAKILRLSGKP [Cdc20P1, reference compound]",aggregation of the Mad2-peptide complex,slowly forms large molecular weight aggregates
